Results: the supplement of paper PMC10849652
This is one part of the list.

Sequences of proteins named here, by UniProt entry; tags and fusion partners are left off. A change or cut given only in a name is not applied to a line headed by its entry.
UniProt Q16611: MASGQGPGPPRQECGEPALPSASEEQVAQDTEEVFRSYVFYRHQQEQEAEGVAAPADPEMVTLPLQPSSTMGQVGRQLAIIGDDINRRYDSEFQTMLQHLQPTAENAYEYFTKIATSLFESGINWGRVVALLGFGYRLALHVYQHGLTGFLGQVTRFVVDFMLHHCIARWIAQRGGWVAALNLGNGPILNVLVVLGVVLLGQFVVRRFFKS
UniProt P61769, whole entry, looked up: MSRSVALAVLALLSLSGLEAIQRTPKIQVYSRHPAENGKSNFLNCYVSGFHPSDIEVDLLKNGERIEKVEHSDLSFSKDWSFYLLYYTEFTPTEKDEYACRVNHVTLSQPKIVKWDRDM
UniProt Q8TDH9: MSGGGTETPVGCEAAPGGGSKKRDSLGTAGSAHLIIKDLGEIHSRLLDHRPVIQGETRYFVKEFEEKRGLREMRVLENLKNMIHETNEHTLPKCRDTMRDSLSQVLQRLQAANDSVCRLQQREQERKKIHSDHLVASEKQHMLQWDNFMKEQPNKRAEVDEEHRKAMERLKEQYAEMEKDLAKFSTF
UniProt Q8NBF6: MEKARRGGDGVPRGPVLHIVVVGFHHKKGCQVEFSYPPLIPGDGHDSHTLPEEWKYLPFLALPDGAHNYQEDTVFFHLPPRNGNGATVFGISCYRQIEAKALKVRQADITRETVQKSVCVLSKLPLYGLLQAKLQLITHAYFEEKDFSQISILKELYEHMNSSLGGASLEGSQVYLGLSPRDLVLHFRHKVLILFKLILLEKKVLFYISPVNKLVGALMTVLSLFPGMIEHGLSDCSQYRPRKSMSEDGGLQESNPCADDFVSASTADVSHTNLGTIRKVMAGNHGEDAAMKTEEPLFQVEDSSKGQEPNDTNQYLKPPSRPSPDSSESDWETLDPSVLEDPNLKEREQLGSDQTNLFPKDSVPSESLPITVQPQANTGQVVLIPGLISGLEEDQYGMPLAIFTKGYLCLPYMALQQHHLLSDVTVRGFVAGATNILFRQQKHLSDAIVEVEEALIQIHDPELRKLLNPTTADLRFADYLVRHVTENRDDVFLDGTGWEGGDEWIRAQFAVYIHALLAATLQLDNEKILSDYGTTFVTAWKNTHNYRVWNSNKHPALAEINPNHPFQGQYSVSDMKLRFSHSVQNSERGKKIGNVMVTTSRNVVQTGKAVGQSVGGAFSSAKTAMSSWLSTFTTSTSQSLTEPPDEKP
UniProt Q9NWV8, whole entry, looked up: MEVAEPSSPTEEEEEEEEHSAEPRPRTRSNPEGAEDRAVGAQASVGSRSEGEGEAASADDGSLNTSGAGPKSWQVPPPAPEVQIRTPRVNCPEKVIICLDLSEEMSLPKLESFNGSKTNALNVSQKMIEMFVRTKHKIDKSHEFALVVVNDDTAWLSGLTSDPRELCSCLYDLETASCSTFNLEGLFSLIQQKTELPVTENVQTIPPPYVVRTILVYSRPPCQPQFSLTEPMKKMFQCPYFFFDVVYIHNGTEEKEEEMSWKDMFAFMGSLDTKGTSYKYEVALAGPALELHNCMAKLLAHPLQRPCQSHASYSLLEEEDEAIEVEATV
UniProt Q9BXH1: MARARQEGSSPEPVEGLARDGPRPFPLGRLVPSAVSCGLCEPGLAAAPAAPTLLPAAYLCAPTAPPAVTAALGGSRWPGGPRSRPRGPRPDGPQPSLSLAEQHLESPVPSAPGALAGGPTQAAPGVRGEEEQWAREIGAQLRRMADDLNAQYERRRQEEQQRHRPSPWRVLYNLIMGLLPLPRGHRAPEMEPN
UniProt Q99700, whole entry, looked up: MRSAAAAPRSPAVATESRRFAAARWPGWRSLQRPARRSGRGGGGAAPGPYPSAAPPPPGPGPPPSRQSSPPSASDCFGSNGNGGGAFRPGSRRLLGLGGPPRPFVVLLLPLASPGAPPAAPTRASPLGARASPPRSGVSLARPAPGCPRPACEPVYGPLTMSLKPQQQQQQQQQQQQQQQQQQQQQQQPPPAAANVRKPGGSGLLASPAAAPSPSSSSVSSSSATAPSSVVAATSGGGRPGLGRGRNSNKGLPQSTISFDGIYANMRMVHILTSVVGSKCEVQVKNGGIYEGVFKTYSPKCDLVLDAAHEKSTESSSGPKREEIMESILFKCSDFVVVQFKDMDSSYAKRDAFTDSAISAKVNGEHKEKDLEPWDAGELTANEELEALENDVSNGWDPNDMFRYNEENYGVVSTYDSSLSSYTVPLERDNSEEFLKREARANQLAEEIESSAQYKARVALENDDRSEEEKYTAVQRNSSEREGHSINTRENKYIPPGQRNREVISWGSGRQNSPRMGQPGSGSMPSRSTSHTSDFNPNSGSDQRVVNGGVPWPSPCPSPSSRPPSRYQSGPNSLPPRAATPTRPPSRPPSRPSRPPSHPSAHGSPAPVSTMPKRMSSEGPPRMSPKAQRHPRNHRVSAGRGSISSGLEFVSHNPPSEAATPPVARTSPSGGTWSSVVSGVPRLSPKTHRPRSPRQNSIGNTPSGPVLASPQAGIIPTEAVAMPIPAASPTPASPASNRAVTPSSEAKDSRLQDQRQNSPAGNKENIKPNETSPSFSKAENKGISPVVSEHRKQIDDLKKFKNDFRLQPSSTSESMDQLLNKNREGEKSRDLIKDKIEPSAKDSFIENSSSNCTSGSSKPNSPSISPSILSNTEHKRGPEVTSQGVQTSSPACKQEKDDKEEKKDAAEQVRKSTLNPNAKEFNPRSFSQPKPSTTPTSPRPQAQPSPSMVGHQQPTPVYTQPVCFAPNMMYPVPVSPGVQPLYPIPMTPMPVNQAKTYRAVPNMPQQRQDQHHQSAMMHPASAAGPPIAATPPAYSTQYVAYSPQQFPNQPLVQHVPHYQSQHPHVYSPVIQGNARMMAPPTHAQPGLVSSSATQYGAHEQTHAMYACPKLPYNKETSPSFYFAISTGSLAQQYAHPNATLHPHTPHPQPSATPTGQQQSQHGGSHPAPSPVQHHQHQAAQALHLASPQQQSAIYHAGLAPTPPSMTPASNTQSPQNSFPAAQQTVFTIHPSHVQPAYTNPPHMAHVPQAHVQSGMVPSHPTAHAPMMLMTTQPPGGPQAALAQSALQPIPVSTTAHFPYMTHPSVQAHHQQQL
UniProt P78537: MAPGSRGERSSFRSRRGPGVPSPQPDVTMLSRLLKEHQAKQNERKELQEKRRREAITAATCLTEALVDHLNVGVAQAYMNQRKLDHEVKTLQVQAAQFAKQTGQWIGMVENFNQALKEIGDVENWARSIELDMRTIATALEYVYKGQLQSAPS
UniProt Q9NW68: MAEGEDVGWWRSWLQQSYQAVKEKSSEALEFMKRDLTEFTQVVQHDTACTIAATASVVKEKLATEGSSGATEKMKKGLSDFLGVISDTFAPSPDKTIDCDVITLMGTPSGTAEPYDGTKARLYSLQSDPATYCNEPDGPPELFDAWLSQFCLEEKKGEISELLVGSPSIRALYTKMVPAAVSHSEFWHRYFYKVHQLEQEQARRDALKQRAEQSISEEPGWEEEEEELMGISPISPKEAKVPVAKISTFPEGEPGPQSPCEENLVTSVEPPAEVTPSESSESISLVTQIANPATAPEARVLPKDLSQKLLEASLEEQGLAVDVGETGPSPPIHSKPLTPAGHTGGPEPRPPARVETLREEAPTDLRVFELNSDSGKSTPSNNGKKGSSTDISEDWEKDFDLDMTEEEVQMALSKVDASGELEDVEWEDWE
UniProt O75934: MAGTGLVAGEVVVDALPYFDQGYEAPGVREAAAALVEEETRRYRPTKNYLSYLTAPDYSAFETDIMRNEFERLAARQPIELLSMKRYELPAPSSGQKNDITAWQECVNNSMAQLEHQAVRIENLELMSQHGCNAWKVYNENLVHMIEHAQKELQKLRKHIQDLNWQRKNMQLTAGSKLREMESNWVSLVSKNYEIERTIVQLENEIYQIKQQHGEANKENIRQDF
UniProt O14867: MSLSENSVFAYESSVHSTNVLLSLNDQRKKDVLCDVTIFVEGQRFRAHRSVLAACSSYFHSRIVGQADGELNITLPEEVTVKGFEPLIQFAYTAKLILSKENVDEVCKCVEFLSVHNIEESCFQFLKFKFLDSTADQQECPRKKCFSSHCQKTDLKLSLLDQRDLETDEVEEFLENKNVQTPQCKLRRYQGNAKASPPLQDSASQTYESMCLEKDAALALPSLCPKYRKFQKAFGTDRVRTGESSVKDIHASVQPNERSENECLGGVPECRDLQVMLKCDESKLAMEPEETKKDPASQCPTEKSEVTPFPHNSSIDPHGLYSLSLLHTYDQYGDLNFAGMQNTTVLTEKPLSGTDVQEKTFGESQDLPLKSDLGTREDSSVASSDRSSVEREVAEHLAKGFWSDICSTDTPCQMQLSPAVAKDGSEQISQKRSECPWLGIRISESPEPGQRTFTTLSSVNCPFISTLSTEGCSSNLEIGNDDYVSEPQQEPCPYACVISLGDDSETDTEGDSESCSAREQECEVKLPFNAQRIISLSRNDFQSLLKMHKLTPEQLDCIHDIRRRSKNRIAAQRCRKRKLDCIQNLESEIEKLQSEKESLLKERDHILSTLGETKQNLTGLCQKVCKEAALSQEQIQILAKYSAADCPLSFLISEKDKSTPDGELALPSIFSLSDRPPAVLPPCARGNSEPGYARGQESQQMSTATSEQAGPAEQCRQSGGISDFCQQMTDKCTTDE
UniProt Q9UBB4: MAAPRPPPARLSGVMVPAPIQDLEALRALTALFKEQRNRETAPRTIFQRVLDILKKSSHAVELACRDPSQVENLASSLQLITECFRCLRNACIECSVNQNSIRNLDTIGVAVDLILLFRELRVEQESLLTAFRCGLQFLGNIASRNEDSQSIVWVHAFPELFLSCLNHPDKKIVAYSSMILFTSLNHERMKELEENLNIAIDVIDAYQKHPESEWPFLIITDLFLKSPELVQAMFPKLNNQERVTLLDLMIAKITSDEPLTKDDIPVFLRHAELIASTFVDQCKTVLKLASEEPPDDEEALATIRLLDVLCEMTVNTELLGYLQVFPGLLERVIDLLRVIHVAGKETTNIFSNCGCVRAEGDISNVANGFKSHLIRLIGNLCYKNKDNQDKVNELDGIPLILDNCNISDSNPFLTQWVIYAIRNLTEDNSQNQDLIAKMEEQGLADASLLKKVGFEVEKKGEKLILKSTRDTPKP
UniProt Q5VW32: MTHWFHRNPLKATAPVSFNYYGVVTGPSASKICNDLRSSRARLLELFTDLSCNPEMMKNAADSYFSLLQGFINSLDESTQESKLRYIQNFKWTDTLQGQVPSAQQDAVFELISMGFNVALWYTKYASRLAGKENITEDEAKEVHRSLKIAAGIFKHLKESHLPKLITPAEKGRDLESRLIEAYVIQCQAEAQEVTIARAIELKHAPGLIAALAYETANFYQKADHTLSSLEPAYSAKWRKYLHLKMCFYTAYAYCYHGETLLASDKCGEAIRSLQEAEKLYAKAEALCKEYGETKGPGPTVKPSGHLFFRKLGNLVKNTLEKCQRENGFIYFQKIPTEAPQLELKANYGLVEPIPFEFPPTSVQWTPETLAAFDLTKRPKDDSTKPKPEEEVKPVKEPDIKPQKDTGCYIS
UniProt O95999: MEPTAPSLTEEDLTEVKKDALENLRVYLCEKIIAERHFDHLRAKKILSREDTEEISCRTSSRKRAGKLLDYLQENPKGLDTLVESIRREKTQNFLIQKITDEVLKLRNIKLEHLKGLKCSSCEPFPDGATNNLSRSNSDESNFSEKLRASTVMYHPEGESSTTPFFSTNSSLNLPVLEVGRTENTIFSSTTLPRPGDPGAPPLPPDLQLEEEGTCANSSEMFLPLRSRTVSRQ
UniProt O15382: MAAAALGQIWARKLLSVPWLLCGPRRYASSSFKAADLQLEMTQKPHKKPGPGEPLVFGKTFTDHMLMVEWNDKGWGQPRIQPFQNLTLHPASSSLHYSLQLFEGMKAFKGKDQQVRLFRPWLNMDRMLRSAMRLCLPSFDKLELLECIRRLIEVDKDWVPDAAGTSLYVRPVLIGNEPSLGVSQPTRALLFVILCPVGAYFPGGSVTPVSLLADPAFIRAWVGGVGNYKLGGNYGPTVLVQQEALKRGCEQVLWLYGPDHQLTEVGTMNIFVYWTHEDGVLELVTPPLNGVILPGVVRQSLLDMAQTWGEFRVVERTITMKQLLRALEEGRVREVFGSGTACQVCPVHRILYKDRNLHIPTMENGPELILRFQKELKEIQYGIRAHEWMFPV

Key:
Test in all cases: log2 fold change, soluble protein after heating vs DMSO (PISA); higher = thermal stabilisation; K562 cells, 10 uM, 30 min; active = over 0.2 and 3.5 SD of the protein, either way, in both replicates (recomputed)
[1] = compound: CC[C@@H]1C(=O)N(C)c2cnc(Nc3ccc(C(=O)NC4CCN(C)CC4)cc3OC)nc2N1C1CCCC1
Method in brief: (§1)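 K562 cells (2×10^6 cells/mL) were treated with 10 μM compound for 30 min, and aliquots were heated for 3 min over 48°C-58°C. Pooled aliquots were extracted in PBS with 0.5% NP-40 at 4°C, and the supernatant after 21,000xg for 90 min was measured by TMTpro 16plex LC-MS/MS with channel sums equalised. Reported thermal stability, relative to control samples and from duplicates, is a log2 fold change.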

volasertib = compound: CC[C@@H]1C(=O)N(C)c2cnc(Nc3ccc(C(=O)N[C@H]4CC[C@H](N5CCN(CC6CC6)CC5)CC4)cc3OC)nc2N1C(C)C [volasertib]
Method in brief: as §1

[2] = compound: CC[C@H](C)N1C=C(C2=C(C=C(C=C21)C3=CN=C(C=C3)N4CCNCC4)C(=O)NCC5=C(C=C(NC5=O)C)C)C
Method in brief: as §1

epoxomicin = compound: CC[C@H](C)[C@@H](C(=O)N[C@@H]([C@@H](C)O)C(=O)N[C@@H](CC(C)C)C(=O)[C@]1(CO1)C)NC(=O)[C@H]([C@@H](C)CC)N(C)C(=O)C [epoxomicin]
Method in brief: as §1

[3] = compound: CCn1c(C(=O)N(C2CC2)C2CC2)cc2c3c(ncn3C)c(Nc3cc(C)n(C)n3)nc21
Method in brief: as §1

[4] = compound: CCn1cc(-c2ccnc3[nH]c(-c4cccc(CN(C)C)c4)cc23)c(-c2ccc(NC(=O)N(C)C)cc2)n1
Method in brief: as §1

[5] = compound: CN(C)CC(=O)Nc1ccc2[nH]c(=O)c3ccccc3c2c1
Method in brief: as §1

rosiglitazone = compound: CN(CCOC1=CC=C(C=C1)C[C@H]2C(=O)NC(=O)S2)C3=CC=CC=N3 (racemic) [rosiglitazone]
Method in brief: as §1

[6] = compound: CN1C2=C(C3=C1C(=O)N(N=C3)CC4=CC(=CC=C4)N)SC(=C2)S(=O)C
Method in brief: as §1

[7] = compound: CN1CCC(CNc2ccc3ncc(-c4cccc(OC(F)(F)F)c4)n3n2)CC1
Method in brief: as §1

saracatinib = compound: CN1CCN(CCOc2cc(OC3CCOCC3)c3c(Nc4c(Cl)ccc5c4OCO5)ncnc3c2)CC1 [saracatinib]
Method in brief: as §1

sotrastaurin = compound: CN1CCN(c2nc(C3=C(c4c[nH]c5ccccc45)C(=O)NC3=O)c3ccccc3n2)CC1 [sotrastaurin]
Method in brief: as §1

alvocidib = compound: CN1CC[C@H](c2c(O)cc(O)c3c(=O)cc(-c4ccccc4Cl)oc23)[C@H](O)C1 [alvocidib]
Method in brief: as §1

Tubastatin A = compound: CN1CCc2c(c3ccccc3n2Cc2ccc(C(=O)NO)cc2)C1 [Tubastatin A]
Method in brief: as §1

[8] = compound: CNC(=O)C1=CC=CC=C1NC2=NC(=NC=C2Cl)NC3=C(C=C(C=C3)N4CCOCC4)OC
Method in brief: as §1

defactinib = compound: CNC(=O)c1ccc(Nc2ncc(C(F)(F)F)c(NCc3nccnc3N(C)S(C)(=O)=O)n2)cc1 [defactinib]
Method in brief: as §1

rucaparib = compound: CNCc1ccc(-c2[nH]c3cc(F)cc4c3c2CCNC4=O)cc1 [rucaparib]
Method in brief: as §1

[9] = compound: CNc1nc(-c2ccc3c(N)n[nH]c3c2)cc(N2C[C@@H](C(=O)NC3CCCCC3)CC[C@H]2C)n1
Method in brief: as §1

encorafenib = compound: COC(=O)N[C@@H](C)CNc1nccc(-c2cn(C(C)C)nc2-c2cc(Cl)cc(NS(C)(=O)=O)c2F)n1 [encorafenib]
Method in brief: as §1

[10] = compound: COC(=O)[C@H](CCSC)NC(=O)C1=C(C=C(C=C1)NC[C@H](CS)N)C2=CC=CC=C2
Method in brief: as §1

Measured: log2 fold change

BAK1 (UniProt Q16611)
inactive: [1] -0.016 | volasertib 0.039 | [2] -0.041 | epoxomicin 0.185 | [3] -0.042 | [4] 0.137 | [5] 0.089 | rosiglitazone 0.055 | [6] 0.044 | [7] 0.154 | saracatinib 0.022 | sotrastaurin 0.08 | alvocidib -0.039 | Tubastatin A -0.079 | [8] 0.094 | defactinib -0.161 | rucaparib -0.16 | [9] -0.116 | encorafenib 0.035 | [10] 0.03

B2M (UniProt P61769)
inactive: [1] 0.05 | volasertib 0.006 | [2] -0.016 | epoxomicin -0.026 | [3] 0.036 | [4] -0.017 | [5] -0.049 | rosiglitazone -0.036 | [6] -0.059 | [7] 0.153 | saracatinib -0.062 | sotrastaurin -0.06 | alvocidib -0.069 | Tubastatin A 0.152 | [8] 0.054 | defactinib 0.02 | rucaparib -0.007 | [9] -0.022 | encorafenib -0.006 | [10] 0

BLOC1S5 (UniProt Q8TDH9)
inactive: [1] 0.005 | volasertib 0.017 | [2] -0.017 | epoxomicin -0.007 | [3] -0.035 | [4] -0.017 | [5] 0.036 | rosiglitazone 0.031 | [6] -0.039 | [7] 0.023 | saracatinib 0.062 | sotrastaurin 0.052 | alvocidib -0.012 | Tubastatin A 0.059 | [8] -0.041 | defactinib -0.057 | rucaparib -0.002 | [9] -0.037 | encorafenib 0.021 | [10] 0.04

AVL9 (UniProt Q8NBF6)
inactive: [1] -0.05 | volasertib -0.198 | [2] 0.005 | epoxomicin 0.024 | [3] 0.005 | [4] -0.041 | [5] -0.004 | rosiglitazone 0.022 | [6] -0.066 | [7] -0.192 | saracatinib 0.036 | sotrastaurin -0.066 | alvocidib -0.07 | Tubastatin A -0.024 | [8] -0.035 | defactinib -0.042 | rucaparib -0.086 | [9] -0.066 | encorafenib 0.054 | [10] 0.033

BIRC6 (UniProt Q9NR09)
inactive: [1] -0.07 | volasertib -0.09 | [2] 0.048 | epoxomicin -0.031 | [3] -0.012 | [4] 0.01 | [5] 0.033 | rosiglitazone 0.027 | [6] 0.045 | [7] -0.033 | saracatinib -0.015 | sotrastaurin -0.02 | alvocidib -0.014 | Tubastatin A 0.004 | [8] 0.023 | defactinib 0.006 | rucaparib -0.118 | [9] 0.025 | encorafenib 0.095 | [10] -0.007

BABAM1 (UniProt Q9NWV8)
inactive: [1] 0.026 | volasertib 0.02 | [2] -0.055 | epoxomicin 0.03 | [3] -0.017 | [4] 0.064 | [5] -0.039 | rosiglitazone 0 | [6] 0.055 | [7] 0.019 | saracatinib 0.046 | sotrastaurin 0 | alvocidib 0.015 | Tubastatin A -0.074 | [8] 0.013 | defactinib 0.001 | rucaparib 0.015 | [9] -0.005 | encorafenib 0.019 | [10] 0.03

Four consecutive entries already listed, quoted:
B2M (UniProt P61769)
inactive: [1] 0.05 | volasertib 0.006 | [2] -0.016 | epoxomicin -0.026 | [3] 0.036 | [4] -0.017 | [5] -0.049 | rosiglitazone -0.036 | [6] -0.059 | [7] 0.153 | saracatinib -0.062 | sotrastaurin -0.06 | alvocidib -0.069 | Tubastatin A 0.152 | [8] 0.054 | defactinib 0.02 | rucaparib -0.007 | [9] -0.022 | encorafenib -0.006 | [10] 0

BLOC1S5 (UniProt Q8TDH9)
inactive: [1] 0.005 | volasertib 0.017 | [2] -0.017 | epoxomicin -0.007 | [3] -0.035 | [4] -0.017 | [5] 0.036 | rosiglitazone 0.031 | [6] -0.039 | [7] 0.023 | saracatinib 0.062 | sotrastaurin 0.052 | alvocidib -0.012 | Tubastatin A 0.059 | [8] -0.041 | defactinib -0.057 | rucaparib -0.002 | [9] -0.037 | encorafenib 0.021 | [10] 0.04

AVL9 (UniProt Q8NBF6)
inactive: [1] -0.05 | volasertib -0.198 | [2] 0.005 | epoxomicin 0.024 | [3] 0.005 | [4] -0.041 | [5] -0.004 | rosiglitazone 0.022 | [6] -0.066 | [7] -0.192 | saracatinib 0.036 | sotrastaurin -0.066 | alvocidib -0.07 | Tubastatin A -0.024 | [8] -0.035 | defactinib -0.042 | rucaparib -0.086 | [9] -0.066 | encorafenib 0.054 | [10] 0.033

BIRC6 (UniProt Q9NR09)
inactive: [1] -0.07 | volasertib -0.09 | [2] 0.048 | epoxomicin -0.031 | [3] -0.012 | [4] 0.01 | [5] 0.033 | rosiglitazone 0.027 | [6] 0.045 | [7] -0.033 | saracatinib -0.015 | sotrastaurin -0.02 | alvocidib -0.014 | Tubastatin A 0.004 | [8] 0.023 | defactinib 0.006 | rucaparib -0.118 | [9] 0.025 | encorafenib 0.095 | [10] -0.007

More entries

BBC3 (UniProt Q9BXH1)
inactive: [1] -0.01 | volasertib 0.111 | [2] -0.135 | epoxomicin 0.013 | [3] 0.047 | [4] -0.041 | [5] -0.057 | rosiglitazone 0.062 | [6] 0.022 | [7] 0.03 | saracatinib 0.005 | alvocidib -0.04 | Tubastatin A 0.001 | [8] -0.077 | defactinib -0.024 | rucaparib -0.028 | [9] -0.084 | encorafenib -0.136 | [10] -0.055

ATXN2 (UniProt Q99700)
inactive: [1] 0.017 | volasertib 0.002 | [2] 0.022 | epoxomicin 0.019 | [3] -0.012 | [4] -0.022 | [5] -0.012 | rosiglitazone -0.047 | [6] 0.016 | [7] -0.04 | saracatinib 0.008 | sotrastaurin 0.013 | alvocidib -0.023 | Tubastatin A -0.013 | [8] 0.015 | defactinib -0.016 | rucaparib 0.086 | [9] -0.009 | encorafenib -0.011 | [10] 0.028

BLOC1S1 (UniProt P78537)
inactive: [1] -0.011 | volasertib -0.018 | [2] -0.002 | epoxomicin 0.12 | [3] 0.018 | [4] -0.047 | [5] -0.028 | rosiglitazone 0.026 | [6] -0.083 | [7] 0.063 | saracatinib 0.001 | sotrastaurin 0.006 | alvocidib -0.062 | Tubastatin A 0.015 | [8] -0.032 | defactinib -0.037 | rucaparib -0.037 | [9] 0.002 | encorafenib -0.104 | [10] 0

BSDC1 (UniProt Q9NW68)
inactive: [1] -0.054 | volasertib -0.215 | [2] 0.014 | epoxomicin -0.006 | [3] 0.038 | [4] 0.017 | [5] -0.021 | rosiglitazone 0.014 | [6] -0.021 | [7] -0.098 | saracatinib 0.031 | sotrastaurin -0.053 | alvocidib -0.029 | Tubastatin A -0.059 | [8] 0.01 | defactinib -0.069 | rucaparib -0.025 | [9] -0.055 | encorafenib 0.006 | [10] 0.019

BCAS2 (UniProt O75934)
inactive: [1] -0.013 | volasertib -0.223 | [2] -0.015 | epoxomicin -0.006 | [3] -0.013 | [4] 0.077 | [5] -0.052 | rosiglitazone -0.022 | [6] -0.028 | [7] 0.053 | saracatinib 0.128 | sotrastaurin -0.09 | alvocidib -0.011 | Tubastatin A 0.007 | [8] -0.008 | defactinib 0 | rucaparib 0.062 | [9] 0.047 | encorafenib -0.032 | [10] 0.012

BACH1 (UniProt O14867)
inactive: [1] 0.047 | volasertib 0.022 | [2] -0.007 | epoxomicin 0.034 | [3] 0.043 | [4] 0.036 | [5] -0.057 | rosiglitazone -0.039 | [6] -0.028 | [7] -0.132 | saracatinib 0.07 | sotrastaurin -0.02 | alvocidib 0.028 | Tubastatin A -0.098 | [8] -0.035 | defactinib -0.016 | rucaparib -0.025 | [9] -0.035 | encorafenib -0.016 | [10] 0.034

ATXN10 (UniProt Q9UBB4)
inactive: [1] -0.004 | volasertib -0.08 | [2] 0.008 | epoxomicin 0.025 | [3] 0 | [4] -0.037 | [5] 0 | rosiglitazone 0.028 | [6] -0.066 | [7] -0.032 | saracatinib 0.014 | sotrastaurin 0.022 | alvocidib -0.097 | Tubastatin A -0.006 | [8] -0.024 | defactinib -0.046 | rucaparib -0.021 | [9] -0.01 | encorafenib 0 | [10] 0.005

BROX (UniProt Q5VW32)
inactive: [1] -0.075 | volasertib -0.21 | [2] 0.056 | epoxomicin 0.236 | [3] 0.03 | [4] -0.079 | [5] 0.048 | rosiglitazone 0.028 | [6] -0.071 | [7] 0.002 | saracatinib -0.009 | sotrastaurin -0.089 | alvocidib -0.035 | Tubastatin A 0.012 | [8] 0.082 | defactinib -0.06 | rucaparib -0.025 | [9] -0.032 | encorafenib 0.061 | [10] -0.031

BCL10 (UniProt O95999)
inactive: [1] 0.004 | volasertib -0.179 | [2] 0.085 | epoxomicin 0.012 | [3] 0.018 | [4] -0.002 | [5] 0.009 | rosiglitazone 0.013 | [6] 0 | [7] -0.17 | saracatinib 0.043 | sotrastaurin -0.065 | alvocidib 0.126 | Tubastatin A -0.013 | [8] -0.011 | defactinib -0.164 | rucaparib -0.032 | [9] -0.14 | encorafenib -0.039 | [10] -0.031

BCAT2 (UniProt O15382)
inactive: [1] 0.005 | volasertib 0.06 | [2] 0.001 | epoxomicin 0.009 | [3] -0.009 | [4] 0.009 | [5] -0.017 | rosiglitazone 0 | [6] 0.015 | [7] 0.027 | saracatinib 0.007 | sotrastaurin 0.027 | alvocidib 0.003 | Tubastatin A -0.012 | [8] 0.012 | defactinib -0.016 | rucaparib -0.012 | [9] -0.068 | encorafenib -0.014 | [10] 0.017
